Test systems include OR14L1 clone 1029; OR1A1 P285S clone 1531; OR1A1 R128H clone 1528; OR1A1 V233M clone 1287; OR1A1 V233M clone 1530; OR1A1 clone 1529; OR1A2 clone 1158; OR1C1 clone 1044; OR1D2 clone 1376; OR1D5 clone 1289; OR1D5 clone 1692; OR1E1 clone 1257; OR1E1 clone 1546; OR1E2 C27R clone 1447; OR1E2 clone 1517; OR1F1 F75S clone 1281; OR1F12 clone 1694; OR1G1 clone 1488; OR1J1 clone 1696.
Holding throughout (assay): odorant receptor activation (CRE luciferase / Renilla) (fold of no-odor wells); higher = more activation
What all share (details): 100 µM

For assay [1], the system named is OR1I1 P139R/Y252S clone 1468.

Consider seven molecules from the odorant receptor screen of Mainland et al. (2015).

“And” between values parts separate entries of the source, which are not always exact repeats. Equal values may be shown once. Some of the results follow. Single wells; the ratio to wells without odorant was worked out here, and repeats agree poorly.

On to `CCCCCCCC=CC=O` [2-decenal], for which the odorant receptor activation was 14.2 in the assay with OR14L1 clone 1029; 1.13 with OR1A1 P285S clone 1531; 1.55 in the assay with OR1A1 R128H clone 1528; 1.54 and 2.52 in the assay with OR1A1 V233M clone 1287; 1.56 in the assay on OR1A1 V233M clone 1530; 1.46 in the assay with OR1A1 clone 1529. In addition, the odorant receptor activation worked out at 1.2 in the assay on OR1A2 clone 1158; 10 in the assay on OR1C1 clone 1044; 1.23 in the assay with OR1D2 clone 1376; 1.06 in the assay with OR1D5 clone 1289; 1.21 in the assay on OR1D5 clone 1692; 2.46 in the assay with OR1E1 clone 1257. Besides, the odorant receptor activation with OR1E1 clone 1546 is 1.42; in the assay with OR1E2 C27R clone 1447, 1.15; with OR1E2 clone 1517 it was 2.27; in the assay with OR1F1 F75S clone 1281, 0.943; with OR1F12 clone 1694, 1.16; with OR1G1 clone 1488 it was 2.04. Further, the odorant receptor activation in assay [1] amounted to 2.81; in the assay on OR1J1 clone 1696, 1.1.

On to `CC12CCC(CC1)C(C)(C)O2` [cineole], for which the odorant receptor activation is 0.83 with OR14L1 clone 1029; 1.05 with OR1A1 P285S clone 1531; 0.984 in the assay with OR1A1 R128H clone 1528; 1.4 and 0.834 with OR1A1 V233M clone 1287; 0.961 with OR1A1 V233M clone 1530; 0.852 with OR1A1 clone 1529. Also, the odorant receptor activation in the assay with OR1A2 clone 1158 was 0.675; in the assay on OR1C1 clone 1044, 0.675; in the assay with OR1D2 clone 1376, 0.176; in the assay on OR1D5 clone 1289, 0.829; with OR1D5 clone 1692 it was 0.843; with OR1E1 clone 1257 it was 1.19. For the same molecule, the odorant receptor activation was 0.686 in the assay with OR1E1 clone 1546; 0.123 in the assay on OR1E2 C27R clone 1447; 1.12 with OR1E2 clone 1517; 1.07 in the assay on OR1F1 F75S clone 1281; 0.88 in the assay with OR1F12 clone 1694; 0.909 in the assay with OR1G1 clone 1488. Moreover, the values for the odorant receptor activation (in assay [1]; in the assay on OR1J1 clone 1696) were 0.921 and 1.21, respectively.

Consider `CC1=CCC(C(C)(C)O)CC1` (stereo not given) [terpineol], for which the odorant receptor activation was 1.05 in the assay with OR14L1 clone 1029; 1.79 in the assay with OR1A1 P285S clone 1531; 1.64 in the assay with OR1A1 R128H clone 1528; 5.99 and 7.59 in the assay on OR1A1 V233M clone 1287; 2.66 in the assay with OR1A1 V233M clone 1530; 2.36 in the assay with OR1A1 clone 1529. Moreover, the odorant receptor activation came out at 1.09 in the assay with OR1A2 clone 1158; 0.964 with OR1C1 clone 1044; 1.26 with OR1D2 clone 1376; 0.944 with OR1D5 clone 1289; 0.621 in the assay on OR1D5 clone 1692; 1.11 in the assay with OR1E1 clone 1257. Further, the odorant receptor activation in the assay with OR1E1 clone 1546 was determined as 1.01; with OR1E2 C27R clone 1447, 0.898; with OR1E2 clone 1517, 0.804; in the assay on OR1F1 F75S clone 1281 it was 1.04; with OR1F12 clone 1694 it was 0.861; in the assay on OR1G1 clone 1488, 0.744. Further, the odorant receptor activation in assay [1] worked out at 0.715; with OR1J1 clone 1696, 1.12.

Turning to `O=C1CCCCCCCCCCCCCCO1` [pentadecalactone], the odorant receptor activation is 0.967 in the assay with OR14L1 clone 1029; 0.687 in the assay with OR1A1 P285S clone 1531; 0.971 in the assay on OR1A1 R128H clone 1528; 0.757 and 0.928 with OR1A1 V233M clone 1287; 1.09 with OR1A1 V233M clone 1530; 0.906 in the assay on OR1A1 clone 1529. Also, the odorant receptor activation in the assay with OR1A2 clone 1158 worked out at 0.774; in the assay with OR1C1 clone 1044, 0.73; in the assay with OR1D2 clone 1376 it was 1.01; in the assay on OR1D5 clone 1289, 0.767; in the assay on OR1D5 clone 1692, 0.687; with OR1E1 clone 1257 it was 0.745. In addition, the odorant receptor activation with OR1E1 clone 1546 was 0.843; in the assay with OR1E2 C27R clone 1447, 1.12; in the assay with OR1E2 clone 1517, 0.696; in the assay with OR1F1 F75S clone 1281, 0.883; in the assay with OR1F12 clone 1694 it was 0.709; with OR1G1 clone 1488 it was 0.75. In addition, the odorant receptor activation in assay [1] was determined as 0.857; in the assay on OR1J1 clone 1696, 0.801.

As to `CC(C)CCC(=O)O` [4-methylvaleric acid], the odorant receptor activation in the assay with OR14L1 clone 1029 was 1.96; with OR1A1 P285S clone 1531 it was 0.781; in the assay with OR1A1 R128H clone 1528 it was 0.863; in the assay with OR1A1 V233M clone 1287, 1 and 1.26; with OR1A1 V233M clone 1530 it was 1.01; in the assay on OR1A1 clone 1529, 0.973. Besides, the odorant receptor activation in the assay with OR1A2 clone 1158 is 0.745; in the assay with OR1C1 clone 1044 it was 2.06; with OR1D2 clone 1376, 0.372; in the assay on OR1D5 clone 1289, 0.867; in the assay with OR1D5 clone 1692, 0.921; in the assay on OR1E1 clone 1257, 1.26. Besides, the odorant receptor activation came out at 1.17 in the assay with OR1E1 clone 1546; 0.917 in the assay with OR1E2 C27R clone 1447; 1.21 in the assay on OR1E2 clone 1517; 0.933 in the assay with OR1F1 F75S clone 1281; 0.825 in the assay with OR1F12 clone 1694; 0.922 with OR1G1 clone 1488. Further, the odorant receptor activation in assay [1] is 0.929; in the assay on OR1J1 clone 1696, 0.924.

Regarding `CC1CCC(C(C)C)C(O)C1` (single isomer, unassigned; (+)) [(+)-menthol], the odorant receptor activation in the assay with OR14L1 clone 1029 is 3.73; in the assay on OR1A1 P285S clone 1531 it was 1.68; with OR1A1 R128H clone 1528 it was 1.76; in the assay on OR1A1 V233M clone 1287, 5.62 and 8.67; in the assay on OR1A1 V233M clone 1530 it was 2.72; in the assay with OR1A1 clone 1529 it was 2.37. For the same molecule, the odorant receptor activation is 1.35 in the assay with OR1A2 clone 1158; 2.89 in the assay with OR1C1 clone 1044; 0.606 in the assay with OR1D2 clone 1376; 0.907 in the assay on OR1D5 clone 1289; 0.783 with OR1D5 clone 1692; 0.974 in the assay on OR1E1 clone 1257. Besides, the odorant receptor activation in the assay on OR1E1 clone 1546 turned out to be 1.25; in the assay with OR1E2 C27R clone 1447, 0.858; in the assay on OR1E2 clone 1517, 1.18; in the assay on OR1F1 F75S clone 1281, 0.613; in the assay with OR1F12 clone 1694 it was 0.845; with OR1G1 clone 1488 it was 1.34. The results for the odorant receptor activation (in assay [1]; in the assay with OR1J1 clone 1696) were 1.23 and 0.886, respectively.

Take `CC(=O)OC(C)(C)C1CC=C(C)CC1` (stereo not given) [terpinyl acetate]: the odorant receptor activation in the assay on OR14L1 clone 1029 was 1.62; in the assay on OR1A1 P285S clone 1531, 1.35; in the assay on OR1A1 R128H clone 1528, 1.7; in the assay with OR1A1 V233M clone 1287, 6.24 and 3.58; in the assay with OR1A1 V233M clone 1530 it was 2.84; with OR1A1 clone 1529, 2.14. Besides, the odorant receptor activation in the assay on OR1A2 clone 1158 turned out to be 1.2; in the assay with OR1C1 clone 1044, 1.42; in the assay with OR1D2 clone 1376, 0.927; with OR1D5 clone 1289 it was 0.942; in the assay on OR1D5 clone 1692, 0.63; with OR1E1 clone 1257 it was 1.34. Besides, the odorant receptor activation was 1.42 in the assay with OR1E1 clone 1546; 0.753 in the assay on OR1E2 C27R clone 1447; 1.18 in the assay with OR1E2 clone 1517; 0.842 in the assay on OR1F1 F75S clone 1281; 0.856 with OR1F12 clone 1694; 1.03 in the assay with OR1G1 clone 1488. For the same molecule, the odorant receptor activation is 0.918 in assay [1] and 1.07 in the assay on OR1J1 clone 1696.
